Data as given in the supplement of paper PMC11237882.
The other results are listed elsewhere or left out. Values are worked out from sequencing counts and are noisy.

T1: Homer1 EVH1 domain
T1 chain: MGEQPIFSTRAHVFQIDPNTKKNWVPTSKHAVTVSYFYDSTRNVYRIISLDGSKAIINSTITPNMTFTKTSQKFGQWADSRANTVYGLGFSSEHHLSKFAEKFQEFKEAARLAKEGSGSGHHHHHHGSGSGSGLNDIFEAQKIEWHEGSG


Biological target: T1, Homer1 EVH1 domain
Assay: enrichment score (AUC of log2 frequency ratio across FACS sorting rounds) (log2 AUC); higher = stronger enrichment for Homer1 EVH1 binding

| Binder | enrichment score |
| --- | --- |
| SVSRSRSRSRSRSRSRSPPPVSKRESKSRSRSKSPP | -2.13 |
| MPQINKEHSQPYHVLQHRRRRRELGPCLRQAICRFA | 1.02 |
| HRSPHPSRQAIFCWMSFSAYQTAFICLGLLVQQIIF | 0.723 |
| PLFYTLFLIIPCLGLSFLTVLVFYLPSDEGEKLSLS | 1.65 |
| FSDVFFKGFKWGFAAFVVAVGAEYYLESLNKDKKHH | 1.38 |
| ILIVMVPFLLILLSYIRVLFAILKMPSTTGRQKAFS | 0.891 |
| LARRASGPICLLLASLLSLVSAVSACRVFKPWPLSF | 1.16 |
| FLFPFLIILTSYTLIWKALKKAYEIQTNKPRNDDIF | 2.54 |
| KMLYPQVWREAATQVFFALGLGFGGVIAFSSYNKQD | -0.299 |
| YACPEILRGLPYNPFLSDTWSMGVILYTLVVAHLPL | -0.0714 |
| INYFENYDPMDSVALNTAYAYATVLTFCTLILAILH | 0.845 |
| QVSVRPLQHTQYERFIPSAYPYYASAFSMMLGLFIF | -0.548 |
| MWGYLSLMPVFLAVWAISGVWIVFAIAVTNRTVDLS | 1.86 |
| MPVMRLFPCFLQLLAGLALLAVPPQQWALSAGNGSS | 0.159 |
| HSWQHWLSLPLALLYLSALAANTLILIIIWQNPSLQ | 1.72 |
| FSLPLWLIFIICVCYYVAVFPFIGLGKVFFTEKFGF | -0.354 |
| LFIFCFIVPLSLICFSYTQLLRALKAVAAQQQESAT | 1.03 |
| MDRAARCSGASSLPLLLALALGLVILHCVVADGNST | 1.3 |
| KMVGDVTGAQAYASTAKCLNIWALILGILMTILLIV | 3.25 |
| APNGFKQHGNPHLYHSQGKGSYKHDRVVPQSRASAQ | 4.31 |
| RSAAERWKAFSTCAAHLTVVSLFYGTLFFMYVQPKV | 2.84 |
| TVLIEQFGWFIADPLCSLFIAILIFLSVVPLIKDAC | 0.549 |

| Binder | enrichment score |
| --- | --- |
| MRLLILTCLVAVALARPKLPLRYPERLQNPSESSEP | 1.63 |
| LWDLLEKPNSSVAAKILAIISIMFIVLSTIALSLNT | 2.64 |
| TTTLFRAVNPELFIKPNKPVMAFGLVTLSLCVAYIG | -2 |
| QRNGFACILLEDVFQLGQFIFIVTFTTFLLRCVDYN | 1.01 |
| VKEVVRRQEAGLGDPSLVALVVFGALTAALVLATVL | 2.79 |
| NEEVARFYAAAMSGAGPWAAWPFLLSLALMLLWLPR | 4.45 |
| MDQTPPARPEYLVSGIRTPPVRRNSKLATLGRIFKP | 2.25 |
| MGGLLLAAFLALVSVPRAQAVWLGRLDPEQLLEPWN | -1.49 |
| SKPGPVSWKSLAITFAIGGALLAGMKHVKKEKAEKL | 0.773 |
| WHNYPFQPLSSGLYHYYIMELAFYWSLMFSQFTDIK | -0.984 |
| FIAMGVVGGVLGAVFNALNYWLTMFRIRYIHRPCLQ | 1.27 |
| IAGFLHYLFLACFFWMLVKAVILFLMVRNLKVVNYS | 1.85 |
| WNIGLAEGIGIVVFVAGIFLLVVVFVLCRKMISRKK | -1.19 |
| AKNPPGDSSLHWAAMALPALFSLIIGFAFGVLYWKN | 4.33 |
| MGARKRSQPHTVTAERTQWRKLPGSAKICAFSALSL | -1.49 |
| QIQEVREQRVTGVLIASLVGLSIVMGAVLRRIPLAV | 3.02 |
| NKYFKSRRPLFTGGLIGGLFTYVLFWTFLYGMVHVY | -1.34 |
| LYNGMASTSSWAALYFIALMTFGNYVLFNLLVAILV | 3.38 |
| MLFEGLDLVSALATLAACLVSVTLLLAVSQQLWQLR | 3.69 |
| FGHFATEASGFSKIFPGITPYILTLGAFFWMPFLRE | 0.78 |
| LKLDKGFIWSFMGPVAVIILINLVFYFQVLWILRSK | 0.828 |
| MAAPALGLVCGRCPELGLVLLLLLLSLLCGAAGSQE | 2.33 |
